This note sets out measurements from PMC4493104.

For test [1], the target named is T1, Pop1 (V5-tagged, pop1^V5) (fission yeast) (UniProt P87060).
T1 sequence: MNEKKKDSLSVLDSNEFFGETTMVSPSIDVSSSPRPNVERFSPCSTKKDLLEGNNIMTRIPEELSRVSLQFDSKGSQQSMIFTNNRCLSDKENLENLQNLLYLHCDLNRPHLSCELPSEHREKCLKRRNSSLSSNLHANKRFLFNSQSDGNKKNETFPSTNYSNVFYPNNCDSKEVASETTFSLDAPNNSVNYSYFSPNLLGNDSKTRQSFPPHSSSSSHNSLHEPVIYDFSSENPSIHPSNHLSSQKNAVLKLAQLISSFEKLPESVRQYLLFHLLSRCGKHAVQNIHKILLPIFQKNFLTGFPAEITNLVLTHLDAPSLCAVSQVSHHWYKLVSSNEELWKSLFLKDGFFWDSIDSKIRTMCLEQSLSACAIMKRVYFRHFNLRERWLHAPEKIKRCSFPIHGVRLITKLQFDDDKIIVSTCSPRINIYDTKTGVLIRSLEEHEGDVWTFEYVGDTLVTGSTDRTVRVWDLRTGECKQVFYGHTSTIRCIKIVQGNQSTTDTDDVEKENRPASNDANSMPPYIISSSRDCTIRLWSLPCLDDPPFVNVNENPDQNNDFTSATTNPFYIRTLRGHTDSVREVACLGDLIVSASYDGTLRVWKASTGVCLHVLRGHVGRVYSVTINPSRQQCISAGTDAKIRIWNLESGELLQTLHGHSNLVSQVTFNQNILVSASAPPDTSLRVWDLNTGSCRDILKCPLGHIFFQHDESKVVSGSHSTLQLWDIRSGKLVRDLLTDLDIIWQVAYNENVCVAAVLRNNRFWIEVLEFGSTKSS
In words: co-IP; whole cell extracts (LiNi method, EBL buffer) of fission yeast strains; immunoprecipitation of V5-tagged Pop1 or Pop2 with rabbit anti-V5 on anti-rabbit IgG magnetic beads, Rev1 forms detected by anti-flag blot; untagged strain or rabbit normal IgG as negative control; asynchronous and cdc25-synchronized cultures.

Test [2] concerns the target T2, Pop2 (V5-tagged, pop2^V5) (fission yeast) (UniProt O14170).
T2 sequence: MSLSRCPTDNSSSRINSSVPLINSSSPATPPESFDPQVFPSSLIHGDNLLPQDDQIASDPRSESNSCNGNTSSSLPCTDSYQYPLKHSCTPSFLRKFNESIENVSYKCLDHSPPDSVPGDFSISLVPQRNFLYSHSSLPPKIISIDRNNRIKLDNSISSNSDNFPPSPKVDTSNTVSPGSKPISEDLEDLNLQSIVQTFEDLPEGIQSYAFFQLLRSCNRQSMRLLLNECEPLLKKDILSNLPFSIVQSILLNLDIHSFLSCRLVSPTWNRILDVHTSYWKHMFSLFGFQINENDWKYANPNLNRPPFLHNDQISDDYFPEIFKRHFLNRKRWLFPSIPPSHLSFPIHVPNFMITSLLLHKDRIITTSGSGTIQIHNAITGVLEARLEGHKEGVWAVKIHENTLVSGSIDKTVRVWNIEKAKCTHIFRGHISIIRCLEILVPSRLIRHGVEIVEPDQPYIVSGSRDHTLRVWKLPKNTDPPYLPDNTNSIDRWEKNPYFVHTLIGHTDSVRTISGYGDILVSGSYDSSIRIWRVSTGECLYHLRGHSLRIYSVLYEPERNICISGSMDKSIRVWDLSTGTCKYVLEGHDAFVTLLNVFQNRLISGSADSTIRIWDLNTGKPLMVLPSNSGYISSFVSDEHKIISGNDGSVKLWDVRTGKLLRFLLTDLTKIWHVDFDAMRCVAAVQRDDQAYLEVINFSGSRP
Described as above.

In test [3] the target is T3, Eso1 (V5-tagged, eso1^V5) (fission yeast) (UniProt O42917).
T3 sequence: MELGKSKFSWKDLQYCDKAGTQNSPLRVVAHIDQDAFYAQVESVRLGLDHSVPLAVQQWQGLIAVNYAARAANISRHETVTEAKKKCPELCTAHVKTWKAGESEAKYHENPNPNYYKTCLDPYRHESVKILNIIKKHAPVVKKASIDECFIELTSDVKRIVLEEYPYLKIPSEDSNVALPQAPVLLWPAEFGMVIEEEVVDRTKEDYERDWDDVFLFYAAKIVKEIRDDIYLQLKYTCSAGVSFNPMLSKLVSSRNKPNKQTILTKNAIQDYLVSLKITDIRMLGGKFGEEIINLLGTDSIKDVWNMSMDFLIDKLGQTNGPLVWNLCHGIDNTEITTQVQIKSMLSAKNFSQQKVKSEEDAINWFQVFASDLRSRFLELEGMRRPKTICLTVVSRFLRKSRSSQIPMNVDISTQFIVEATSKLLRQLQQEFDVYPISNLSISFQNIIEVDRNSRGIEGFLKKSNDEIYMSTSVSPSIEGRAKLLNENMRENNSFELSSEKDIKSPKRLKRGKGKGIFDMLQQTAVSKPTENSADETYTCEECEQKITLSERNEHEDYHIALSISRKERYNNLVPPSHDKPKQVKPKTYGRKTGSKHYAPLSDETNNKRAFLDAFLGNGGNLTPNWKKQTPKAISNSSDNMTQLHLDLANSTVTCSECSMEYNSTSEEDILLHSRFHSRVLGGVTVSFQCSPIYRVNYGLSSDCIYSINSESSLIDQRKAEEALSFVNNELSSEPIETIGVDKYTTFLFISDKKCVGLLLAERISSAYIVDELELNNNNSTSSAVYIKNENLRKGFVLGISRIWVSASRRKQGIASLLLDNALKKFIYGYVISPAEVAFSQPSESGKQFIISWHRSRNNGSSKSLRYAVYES
In words: co-IP; whole cell extracts of cdc10 rev1^flag eso1^V5 cells arrested at 36°C for 3 h (G1); immunoprecipitation with anti-flag or anti-V5 antibodies, western blot. (In western blotting, separated proteins are transferred to a membrane and probed.)

In test [4] the target is T4, Rev1 (flag-tagged, rev1^flag) (fission yeast) (UniProt O94623).
T4 sequence: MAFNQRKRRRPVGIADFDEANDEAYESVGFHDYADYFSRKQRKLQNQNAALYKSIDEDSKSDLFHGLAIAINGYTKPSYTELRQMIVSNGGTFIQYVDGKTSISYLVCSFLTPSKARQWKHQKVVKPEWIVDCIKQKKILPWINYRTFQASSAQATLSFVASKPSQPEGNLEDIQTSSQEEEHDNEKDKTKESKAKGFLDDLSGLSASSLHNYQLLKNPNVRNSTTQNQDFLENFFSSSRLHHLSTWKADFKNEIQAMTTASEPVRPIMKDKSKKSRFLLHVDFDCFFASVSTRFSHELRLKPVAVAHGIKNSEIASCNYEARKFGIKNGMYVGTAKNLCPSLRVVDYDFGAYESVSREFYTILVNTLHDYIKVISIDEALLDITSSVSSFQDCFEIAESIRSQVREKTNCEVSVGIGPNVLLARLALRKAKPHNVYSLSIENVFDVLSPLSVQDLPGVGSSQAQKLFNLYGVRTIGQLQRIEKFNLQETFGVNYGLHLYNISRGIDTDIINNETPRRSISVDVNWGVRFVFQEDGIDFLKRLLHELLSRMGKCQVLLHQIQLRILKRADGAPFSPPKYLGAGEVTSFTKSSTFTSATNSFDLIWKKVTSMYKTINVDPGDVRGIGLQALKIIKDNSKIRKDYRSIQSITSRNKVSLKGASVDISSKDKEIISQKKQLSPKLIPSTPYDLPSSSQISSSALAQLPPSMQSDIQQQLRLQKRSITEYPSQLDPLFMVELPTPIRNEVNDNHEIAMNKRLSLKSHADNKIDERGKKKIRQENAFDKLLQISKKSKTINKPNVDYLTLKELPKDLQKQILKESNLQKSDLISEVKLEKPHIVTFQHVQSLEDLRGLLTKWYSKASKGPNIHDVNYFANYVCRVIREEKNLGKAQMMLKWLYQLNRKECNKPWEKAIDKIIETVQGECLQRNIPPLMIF
Kind of test: co-IP; immunoprecipitation assay from fission yeast extracts; bait, tags and antibodies shown only in S2 Fig and S5 Fig.

The target of test [5] is T4, Rev1 (flag-tagged, rev1^flag) (fission yeast). In words: co-IP; whole cell extracts of cdc10 rev1^flag eso1^V5 cells arrested at 36°C for 3 h (G1); immunoprecipitation with anti-flag or anti-V5 antibodies, western blot.

No constants are given. Whether binding was seen depends on the method and setting. In cells and extracts the contact can be indirect. Some results given as binding are weak or reduced against the parent protein; the word gives no strength. Where a sequence is shown, tags or fusion partners need not be part of it.

B1: Rev1 (flag-tagged, rev1^flag) (protein, UniProt O94623 1-935)
chain: MAFNQRKRRRPVGIADFDEANDEAYESVGFHDYADYFSRKQRKLQNQNAALYKSIDEDSKSDLFHGLAIAINGYTKPSYTELRQMIVSNGGTFIQYVDGKTSISYLVCSFLTPSKARQWKHQKVVKPEWIVDCIKQKKILPWINYRTFQASSAQATLSFVASKPSQPEGNLEDIQTSSQEEEHDNEKDKTKESKAKGFLDDLSGLSASSLHNYQLLKNPNVRNSTTQNQDFLENFFSSSRLHHLSTWKADFKNEIQAMTTASEPVRPIMKDKSKKSRFLLHVDFDCFFASVSTRFSHELRLKPVAVAHGIKNSEIASCNYEARKFGIKNGMYVGTAKNLCPSLRVVDYDFGAYESVSREFYTILVNTLHDYIKVISIDEALLDITSSVSSFQDCFEIAESIRSQVREKTNCEVSVGIGPNVLLARLALRKAKPHNVYSLSIENVFDVLSPLSVQDLPGVGSSQAQKLFNLYGVRTIGQLQRIEKFNLQETFGVNYGLHLYNISRGIDTDIINNETPRRSISVDVNWGVRFVFQEDGIDFLKRLLHELLSRMGKCQVLLHQIQLRILKRADGAPFSPPKYLGAGEVTSFTKSSTFTSATNSFDLIWKKVTSMYKTINVDPGDVRGIGLQALKIIKDNSKIRKDYRSIQSITSRNKVSLKGASVDISSKDKEIISQKKQLSPKLIPSTPYDLPSSSQISSSALAQLPPSMQSDIQQQLRLQKRSITEYPSQLDPLFMVELPTPIRNEVNDNHEIAMNKRLSLKSHADNKIDERGKKKIRQENAFDKLLQISKKSKTINKPNVDYLTLKELPKDLQKQILKESNLQKSDLISEVKLEKPHIVTFQHVQSLEDLRGLLTKWYSKASKGPNIHDVNYFANYVCRVIREEKNLGKAQMMLKWLYQLNRKECNKPWEKAIDKIIETVQGECLQRNIPPLMIF
Consider B1, for which the binding entry in test [1], in test [2] and in test [3] was “binds” throughout.

B2: Rev1KK (amino acids 761–818 of Rev1), flag-tagged (domain or fragment, UniProt O94623 761-818)
chain: KSHADNKIDERGKKKIRQENAFDKLLQISKKSKTINKPNVDYLTLKELPKDLQKQILK
Consider B2, for which the binding result in test [1] is given as “binds”.

B3: Rev7 (as used in the immunoprecipitation with Rev1 and Rev1dK, S2 Fig) (protein, UniProt Q0E7J8 1-213)
chain: MENDTGWSVKKCIDIFGEFLLVSIHCILYARRLYPQDLFIKARKYNTIVWQSRHPILCEYIEEVVQSCIEELQTGSVHQVALSIINKEQREEERYVFSTDSIPIIPDFLLEKQISTNEPFTDAYVEYMRASLIQLLNITNGLPLIEQECTWTLRVTLKDGFPRPKQWEEWFLPPQARETDATRQFKGITIPVRNVDIGPMMTEIWVEKYTNSD
As to B3, the binding entry in test [4] is “binds”.

B4: Eso1 (V5-tagged, eso1^V5) (protein, UniProt O42917 1-872)
chain: MELGKSKFSWKDLQYCDKAGTQNSPLRVVAHIDQDAFYAQVESVRLGLDHSVPLAVQQWQGLIAVNYAARAANISRHETVTEAKKKCPELCTAHVKTWKAGESEAKYHENPNPNYYKTCLDPYRHESVKILNIIKKHAPVVKKASIDECFIELTSDVKRIVLEEYPYLKIPSEDSNVALPQAPVLLWPAEFGMVIEEEVVDRTKEDYERDWDDVFLFYAAKIVKEIRDDIYLQLKYTCSAGVSFNPMLSKLVSSRNKPNKQTILTKNAIQDYLVSLKITDIRMLGGKFGEEIINLLGTDSIKDVWNMSMDFLIDKLGQTNGPLVWNLCHGIDNTEITTQVQIKSMLSAKNFSQQKVKSEEDAINWFQVFASDLRSRFLELEGMRRPKTICLTVVSRFLRKSRSSQIPMNVDISTQFIVEATSKLLRQLQQEFDVYPISNLSISFQNIIEVDRNSRGIEGFLKKSNDEIYMSTSVSPSIEGRAKLLNENMRENNSFELSSEKDIKSPKRLKRGKGKGIFDMLQQTAVSKPTENSADETYTCEECEQKITLSERNEHEDYHIALSISRKERYNNLVPPSHDKPKQVKPKTYGRKTGSKHYAPLSDETNNKRAFLDAFLGNGGNLTPNWKKQTPKAISNSSDNMTQLHLDLANSTVTCSECSMEYNSTSEEDILLHSRFHSRVLGGVTVSFQCSPIYRVNYGLSSDCIYSINSESSLIDQRKAEEALSFVNNELSSEPIETIGVDKYTTFLFISDKKCVGLLLAERISSAYIVDELELNNNNSTSSAVYIKNENLRKGFVLGISRIWVSASRRKQGIASLLLDNALKKFIYGYVISPAEVAFSQPSESGKQFIISWHRSRNNGSSKSLRYAVYES
On to B4, for which the binding entry in test [5] was “binds”.
